The values below come from publication PMC7819943, “Rice protein-binding microarrays: a tool to detect cis-acting elements near promoter regions in rice”.

This is one part of the list.

This experiment has as its target T1, OsSMF1 (Oryza sativa, UniProt Q6ZLB0 1-436).
T1 sequence: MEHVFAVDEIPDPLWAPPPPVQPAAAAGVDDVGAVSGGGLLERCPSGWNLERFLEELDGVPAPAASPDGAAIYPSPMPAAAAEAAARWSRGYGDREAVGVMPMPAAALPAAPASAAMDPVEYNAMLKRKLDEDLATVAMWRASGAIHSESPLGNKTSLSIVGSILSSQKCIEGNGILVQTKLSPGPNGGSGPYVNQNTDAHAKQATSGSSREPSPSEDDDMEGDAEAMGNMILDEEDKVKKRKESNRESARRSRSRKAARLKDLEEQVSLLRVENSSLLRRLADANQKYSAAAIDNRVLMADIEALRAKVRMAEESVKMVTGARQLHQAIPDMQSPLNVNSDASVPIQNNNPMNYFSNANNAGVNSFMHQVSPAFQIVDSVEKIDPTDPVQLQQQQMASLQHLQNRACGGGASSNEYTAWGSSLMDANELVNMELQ
The experiment is described as follows: protein-binding microarray (RPBM); PBS, 2% BSA, 51.3 ng/ul salmon testes DNA, 50 uM zinc acetate, 200 nM TF, 25 C, 1 h; high values mean tight binding. The note with it: protein: recombinant; tags: N-terminal polyhistidine and DsRed monomer fusion (pET32a); chain copies: 2; label: CyDye5-dUTP incorporated in the synthesized complementary strand; 3' TTTTT single-stranded linker to array surface; dsDNA, one strand shown. The procedure, abridged: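 The binding signal for each feature is its fluorescence intensity in arbitrary units. An Axon 4000B scanner was used to read a custom Agilent array that had been made double-stranded with Cy5-dUTP primer extension, blocked with 2% BSA, incubated at 25 °C for 1 h with 200 nM protein in PBS, 2% BSA, salmon testes DNA and 50 µM zinc acetate, and washed. The protein was an N-terminal polyhistidine–DsRed transcription factor fusion from E. coli BL21-CodonPlus, purified on Ni–NTA.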
Regarding “CGTCTGATGATGCAACACCGTCGCCATTGTCGAGATCGGCCGGAGTCACCTAGTGCAG”, the binding signal was 5430 fluorescence intensity (a.u.).
Take “TCTTTGGATATAAAGCAACTACAATTTCAAAGGTAACCAACGGAGTCACCTAGTGCAG”: the binding signal is 3460 fluorescence intensity (a.u.).
Next, “TTGTCCCCGATGACAATCTCCACTCTGACGTTGCTAATGTCGGAGTCACCTAGTGCAG”: 30600 fluorescence intensity (a.u.); “TGGGCGGCGGCGCCGGCGAGCCGCCGATGTTCTGGCGTATCGGAGTCACCTAGTGCAG”: 9540 fluorescence intensity (a.u.).
Next, “ATCCCCGCGAAGCCGCCATGAATGACGCCCACCCTTCCCACGGAGTCACCTAGTGCAG”: 4520 fluorescence intensity (a.u.); “CCGCGGATTGCGTGCCAACGTTTGACTGTCCGTCTTATATCGGAGTCACCTAGTGCAG”: 5060 fluorescence intensity (a.u.).
“AAAGTCATGTCATCACGTATATATCACGTATACATATATACGGAGTCACCTAGTGCAG”: the binding signal was 4080 fluorescence intensity (a.u.).
As to “GCGCCATGCATGCATATATGCATGACATGGCATGCCTTCCCGGAGTCACCTAGTGCAG”, the binding signal is 9720 fluorescence intensity (a.u.).
In the case of “CCGTCGTGCTGGGTGTGGCGCCGGAGAAGAAGGCGCAGCACGGAGTCACCTAGTGCAG”, the binding signal is 41700 fluorescence intensity (a.u.).
Take “GGGGATCGGAGGGTGGGGATACGCATGGTGGATGGTAGTGCGGAGTCACCTAGTGCAG”: the binding signal is 3880 fluorescence intensity (a.u.).
With “ACAACACCACACAATGGAAAGCCGGGCCCACTTTATGACGCGGAGTCACCTAGTGCAG”, the binding signal was 3280 fluorescence intensity (a.u.).
With “ACGGGGACGCAGAGTACAGCGCATAGTACGTGCAGAGGCTCGGAGTCACCTAGTGCAG”, the binding signal was 3970 fluorescence intensity (a.u.).
For “ATTTGTAGTCATTATGTGTTAAATTAAATTGTTGAAGCCACGGAGTCACCTAGTGCAG”, the binding signal is 3460 fluorescence intensity (a.u.).
Turning to “GCAAGAAGCGATCGATTCGGCGTGTGCTGGATCGGTTTCCCGGAGTCACCTAGTGCAG”, the binding signal is 3170 fluorescence intensity (a.u.).
“GTGATATCATCAAGACCCCTTTTCAATGTCAGCATCTTTCCGGAGTCACCTAGTGCAG”: the binding signal is 4660 fluorescence intensity (a.u.).
Next, “GCCTGGGCTGTGAGTGCGGCACGTGGGCTGGCACGGCACGCGGAGTCACCTAGTGCAG”: 3390 fluorescence intensity (a.u.); “TGGGAATAGAGAAGATTAGCTTGCCACCTCATCAATATTTCGGAGTCACCTAGTGCAG”: 8450 fluorescence intensity (a.u.); “GGGATCTTCACCTTATCAGCCTCACACCGTCAGTCCGCGGCGGAGTCACCTAGTGCAG”: 3360 fluorescence intensity (a.u.).
In the case of “CTATGATAAAGGTGAGATACATGATAGATGGACACCGCATCGGAGTCACCTAGTGCAG”, the binding signal was 22000 fluorescence intensity (a.u.).
On to “GAACTCCAAGACGTAGTGTGTGTATGACAGGTGGGACCAGCGGAGTCACCTAGTGCAG”, for which the binding signal was 3190 fluorescence intensity (a.u.).
For the sequence “AGTCGTGAGCCCATGACTGTTATACCCATGAGACCATGACCGGAGTCACCTAGTGCAG”, the binding signal was 3730 fluorescence intensity (a.u.).
With “CCTAAATTATCGTGGAACTGTACGTCAGTGTAATAATTGTCGGAGTCACCTAGTGCAG”, the binding signal is 3910 fluorescence intensity (a.u.).
Under “CGCGAGCAGAGGCAGAGGCAGCCGCAGCCAGCCGCCGGTCCGGAGTCACCTAGTGCAG” stands 3570 fluorescence intensity (a.u.); under “GGGATGGATGGAGGCGGCGGTGCTGAGGTGGTGGGACTGTCGGAGTCACCTAGTGCAG”, 4990 fluorescence intensity (a.u.).
As to “GCGCGCGCGTTCTCTAATCGAAGTCGATAGGATAGGAGGACGGAGTCACCTAGTGCAG”, the binding signal was 36900 fluorescence intensity (a.u.).
Consider “GCTTTGGTCGGTTGGGGTGGGCTGGATGCGCCTCCGCGCTCGGAGTCACCTAGTGCAG”, for which the binding signal is 3960 fluorescence intensity (a.u.).
Take “TTGATACTTCCAAGTCGCGCGTGATTTGTCAGCTGTTAGTCGGAGTCACCTAGTGCAG”: the binding signal was 4260 fluorescence intensity (a.u.).
Next, “ACAAGTATCGCAACTGTTTGACTCAGGCCACATCTCCACTCGGAGTCACCTAGTGCAG”: 4740 fluorescence intensity (a.u.).
On to “CTCCTTCAACATCGTCATCATCACCATCATCACAAGGTTGCGGAGTCACCTAGTGCAG”, for which the binding signal was 5150 fluorescence intensity (a.u.).
For the sequence “GTATATATGTATTGACCCACGCTTACGTGTAGGGCAGTACCGGAGTCACCTAGTGCAG”, the binding signal was 11100 fluorescence intensity (a.u.).
For “TAAAGATTAAGATTTTCGTGTCACGCTTTTCAAACTGCTACGGAGTCACCTAGTGCAG”, the binding signal was 3210 fluorescence intensity (a.u.).
For “ATGTACTTAGCCACATCACTATTGTTGTGATTTTAAATGGCGGAGTCACCTAGTGCAG”, the binding signal was 7860 fluorescence intensity (a.u.).
As for “TGACACGTAAGCGCCACGTCAATGCTACGTCAGATGAAGACGGAGTCACCTAGTGCAG”, the binding signal is 31800 fluorescence intensity (a.u.).
Next, “TCGCGCTGTCTGCCTGTATCTGACCAGGTCGATCTACCTGCGGAGTCACCTAGTGCAG”: 4020 fluorescence intensity (a.u.); “TCATGTGTGCTTATTTCACCCTGGCATAACCAATTTTCTACGGAGTCACCTAGTGCAG”: 3530 fluorescence intensity (a.u.).
In the case of “ATTTAACTATTTGCCACTCTTGTGACATGGCAATTAACGACGGAGTCACCTAGTGCAG”, the binding signal is 6140 fluorescence intensity (a.u.).
For the sequence “TTTGATCGCTTACGTTTGCGGGCCTTATGTGGTTTAGGGCCGGAGTCACCTAGTGCAG”, the binding signal was 3200 fluorescence intensity (a.u.).
With “ACGACACGTCGCCAGACAGCACCGCTGGCGACTGCCCTCCCGGAGTCACCTAGTGCAG”, the binding signal was 4500 fluorescence intensity (a.u.).
Turning to “CACCTCCGCCTCCGCCGCCGCGCCGTGTCGAGGGATCCCGCGGAGTCACCTAGTGCAG”, the binding signal was 3160 fluorescence intensity (a.u.).
For “CATGGCCACTGGTGAGTTGGCCGTCGTACCTGTGTCGCGTCGGAGTCACCTAGTGCAG”, the binding signal was 4170 fluorescence intensity (a.u.).
Consider “ACCCTGGCTGCGCCGAGGCCCACCGGAACGCGGCGTGCGCCGGAGTCACCTAGTGCAG”, for which the binding signal was 3370 fluorescence intensity (a.u.).
Next, “TCCATTTGGATTGTGTCATGATTAACTAAGTCACCACGCGCGGAGTCACCTAGTGCAG”: 4160 fluorescence intensity (a.u.).
